Experimental data published in patent US20130336951A1.
No constants are given. Whether binding was seen depends on the method and setting. In cells and extracts the contact can be indirect. Binding calls can cover weak binding; strength is not graded here. Tags and fused reporters may be left off the sequences shown.

Legend:
[1] = target: Glyceraldehyde 3-phosphate-dehydrogenase (GAPDH), endogenous protein of rat hippocampus (Rattus norvegicus); assay: GST pull-down from rat hippocampal extracts, Western blot (FIG. 6B)
[2] = target: Glyceraldehyde 3-phosphate-dehydrogenase (GAPDH), endogenous protein of rat hippocampus (Rattus norvegicus); assay: GST pull-down from rat hippocampal tissue, 20 µg fusion, 100 µg tissue (FIG. 6I)
[3] = target: Glyceraldehyde 3-phosphate-dehydrogenase (GAPDH), endogenous protein of rat hippocampus (Rattus norvegicus); assay: GST pull-down, Western blot
[4] = target: Glyceraldehyde 3-phosphate-dehydrogenase (GAPDH), endogenous protein of rat hippocampus (Rattus norvegicus); assay: repeated GST pull-down from rat hippocampal tissue

- binding [1]: binds
- binding [2]: binds
- binding [3]: binds
- binding [4]: binds
Binder: YYQWDKFAYLYDSDRGLSTLQAVLDSAAEKK (peptide, not shown: a dimerising Fc or GST) [GST-GluR2 NT1-3-2 (Y142-K172)]
